Measured values published in PMC6715695.
Results are given in words; binding and its absence hold for the method and conditions named. Binding seen in cells or lysates may run through a third protein. Some results given as binding are weak or reduced against the parent protein; the word gives no strength.

Chains of the proteins cited; added tags and fusions are not shown.
UniProt O60563: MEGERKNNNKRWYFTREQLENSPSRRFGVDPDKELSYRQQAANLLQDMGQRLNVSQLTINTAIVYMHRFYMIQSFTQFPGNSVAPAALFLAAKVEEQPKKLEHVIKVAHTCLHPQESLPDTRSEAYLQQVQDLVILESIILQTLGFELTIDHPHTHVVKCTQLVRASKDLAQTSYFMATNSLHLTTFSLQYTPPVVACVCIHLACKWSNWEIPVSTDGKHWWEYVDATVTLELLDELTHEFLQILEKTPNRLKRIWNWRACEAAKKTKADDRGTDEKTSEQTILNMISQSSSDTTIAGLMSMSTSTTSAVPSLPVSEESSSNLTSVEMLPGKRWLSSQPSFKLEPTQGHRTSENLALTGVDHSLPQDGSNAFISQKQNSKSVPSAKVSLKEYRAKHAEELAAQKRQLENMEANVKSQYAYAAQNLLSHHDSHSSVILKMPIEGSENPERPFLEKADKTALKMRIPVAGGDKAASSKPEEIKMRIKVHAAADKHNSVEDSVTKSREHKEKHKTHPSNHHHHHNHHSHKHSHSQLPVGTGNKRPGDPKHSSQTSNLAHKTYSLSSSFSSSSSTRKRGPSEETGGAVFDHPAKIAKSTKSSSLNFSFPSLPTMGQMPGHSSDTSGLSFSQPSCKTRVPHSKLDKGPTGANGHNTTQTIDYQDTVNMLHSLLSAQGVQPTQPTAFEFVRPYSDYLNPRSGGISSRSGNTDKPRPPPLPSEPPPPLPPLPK
UniProt O94992: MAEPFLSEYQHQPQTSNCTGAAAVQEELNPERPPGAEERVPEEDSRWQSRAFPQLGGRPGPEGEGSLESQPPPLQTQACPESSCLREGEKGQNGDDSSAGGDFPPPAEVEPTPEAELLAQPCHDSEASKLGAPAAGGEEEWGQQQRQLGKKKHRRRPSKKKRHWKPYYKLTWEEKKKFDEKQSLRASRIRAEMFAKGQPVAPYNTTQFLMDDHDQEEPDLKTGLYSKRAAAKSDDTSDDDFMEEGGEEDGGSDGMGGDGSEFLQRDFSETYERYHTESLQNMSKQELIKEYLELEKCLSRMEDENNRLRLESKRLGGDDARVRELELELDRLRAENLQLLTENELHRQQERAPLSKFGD

Biological target: Cyclin-T1 (human (endogenous in primary skin fibroblasts)) (UniProt O60563)
Test: co-IP; endogenous Cyclin-T1 immunoprecipitated (anti-Cyclin-T1, Protein A-Agarose, 4 h, 4 °C) from fibroblast lysates of the patient (MEPCE haploinsufficient), the patient's parent and control 1; buffer 120 mM NaCl, 50 mM Tris-HCl pH 8.0, 0.5% NP-40, 1 mM EDTA; HEXIM1 detected by immunoblot; co-precipitated HEXIM1 in patient cells reduced to ~74% of control 1 and ~63% of the parent

**Q.** How did the binding turn out when HEXIM1 (from UniProt O94992 1-359) was run?
**A.** binds
